Laboratory results as given in patent US6417235B2, “Method and use of α-amino-β-mercapto-ethane derivatives as dicarbonyl scavengers for treatment of conditions resulting from protein, lipid, and DNA damage” (University of Kentucky Research Foundation, priority 2000, dated 2002).
At least one compound was matched to its structure with a doubt left.

Test system: glycation of histone H1 by ADP-ribose
Test: Screening of inhibitors of nonoxidative advanced glycation: AGE-fluorescence on 96 well-microtiter plate
Format: biochemical, calf
Conditions: (± SEM, n = 2); for AGE-fluorescence (day 5): complete reaction under air
Experimental: All operations were carried out at 4° C. Chromatin was isolated from fresh calf thymus by extraction with 0.14 M NaCl, 0.05 M Na2S2O5, as described earlier in Wondrak supra. After repeated extraction with 5% HCl)4 and centrifugation (1500 g), histone H1 was precipitated from the supernatant by addition of TCA (20% final concentration v/v). The histone H1 precipitate was colleted by centrifugation (12,000 g) and deionized water. After extensive dialysis (MW cut-off: 12,000-14,000) against water for 48 h, the sample was lyophilized and the protein was stored at 4° C. SDS-PAGE (12%) was used to analyze the purity of the preparation.
Earlier studies have reported that D-penicillamine inhibits collagen crosslinking and AGE fluorescence caused by sugars (McPherson, J. D., Shilton, B. H., and Walton, D. J. 1988. Role of Fructose in Glycation and Cross-Linking of Proteins. Biochemistry 27, 1901-1907) and reaction of D-penicillamine with aldehyde groups of proteins (Deshmukh, K., and Nimm, M. E. 1969. A Defect in the Intramolecular and Intermolecular Cross-linking of Collagen caused by Penicillamine. J. Biol. Chem. 244, 1787-1795). A number of different penicillamines and penicillamine derivatives were tested to determine the inhibition of AGE-fluorescence on histone H1 at physiological pH. The reaction conditions for the glycation of histone H1 by ADP-ribose mimic physiological conditions to the extent possible. Reaction mixtures contain 1.5 mg/ml histone Hl, 1.0 mM ADP-ribose, 50 mM potassium phosphate buffer, pH 7.4, 37° C. D,L-penicillamine; L-penicillamine; D-penicllamine; D-penicillaminedisulfide and N,S- isopropylidine-D-penicillamine were tested in concentrations of 1,5 and 10 mM. The detected reaction parameter representing the accumulation of protein damage is AGE-fluorescence ((λex=[…]), which is suppressed by the presence of a compound with inhibitory activity. Generation of AGE-type fluorescence (λex=355 nm; λem=405 nm) was monitored over time at 37° C; which is in the range of the broad excitation/emission maxima of AGE compounds. To allow high throughput sample processing on 96 well microtiter plates, the reaction volumes are 300 μl. Fluorescence on the 96-well microtiter plates was measured using an automated microtiter fluorescence reader. Fluorescence of the 1 ml samples of the glycation reaction mixtures was measured using a Hitachi F-200 fluorescence spectophotometer, and prior to measurement the protein sample is dialyzed extensively against water (MW cutoff=[…]), lyophilized and reconstituted in reaction buffer. For inhibitor screening the plate is read on a Fluoroskan II plate reader (Titertek, ICN) at the excitation/emission wavelengths set forth above at a bandwidth of 35 nm.
The following screening scheme is used (see Table 1): AGE-fluorescence is determined at the beginning and after five days of incubation. Test compounds that are inherently fluorescent (designated false negatives) were identified by the initial fluorescence measurement (See Table 1, NADH for example). Since these are compounds of uncertain activity, they are diverted directly to the second stage of the screen. Aminoguanidine, a known glycation inhibitory agent, was used as a positive control for suppression of the increase on AGE-fluorescence. After five days incubation and plate reading, fluorescence quenchers (designated false positives) are excluded by measuring the quenching activity of the test compound by addition of AGE modified protein having known fluorescence activity to one microtiter plate well containing test compound in the complete reaction mixture. For this, AGE-BSA is used as the AGE-type fluorescence standard. This AGE-BSA test excludes false positives compounds that function by fluorescence quenching. If fluorescence quenching occurs the test compound is excluded from further screening. […] The protein is visualized by silver staining of the gel. […]

## NC(N)=S [Thiourea]
Compound 1 mM
  AGE-fluorescence (day 0): 1.1 (0.1) relative units
  AGE-fluorescence (day 5): 18 (0.1) relative units
Compound 5 mM
  AGE-fluorescence (day 0): 1.1 (0.1) relative units
  AGE-fluorescence (day 5): 15 (0.0) relative units
Compound 10 mM
  AGE-fluorescence (day 0): 1.1 (0.2) relative units
  AGE-fluorescence (day 5): 11 (0.3) relative units
